Results are given in words; binding and its absence hold for the method and conditions named. Some binding calls cover weakened binding; strength is not graded here.
Legend:
[1] = target: T1, NFκB p65 (murine (cell line J774)), Q04207; test: EMSA supershift, J774 nuclear extracts, labelled NFκB site probe; details: remark: other sources report otherwise
T1 chain: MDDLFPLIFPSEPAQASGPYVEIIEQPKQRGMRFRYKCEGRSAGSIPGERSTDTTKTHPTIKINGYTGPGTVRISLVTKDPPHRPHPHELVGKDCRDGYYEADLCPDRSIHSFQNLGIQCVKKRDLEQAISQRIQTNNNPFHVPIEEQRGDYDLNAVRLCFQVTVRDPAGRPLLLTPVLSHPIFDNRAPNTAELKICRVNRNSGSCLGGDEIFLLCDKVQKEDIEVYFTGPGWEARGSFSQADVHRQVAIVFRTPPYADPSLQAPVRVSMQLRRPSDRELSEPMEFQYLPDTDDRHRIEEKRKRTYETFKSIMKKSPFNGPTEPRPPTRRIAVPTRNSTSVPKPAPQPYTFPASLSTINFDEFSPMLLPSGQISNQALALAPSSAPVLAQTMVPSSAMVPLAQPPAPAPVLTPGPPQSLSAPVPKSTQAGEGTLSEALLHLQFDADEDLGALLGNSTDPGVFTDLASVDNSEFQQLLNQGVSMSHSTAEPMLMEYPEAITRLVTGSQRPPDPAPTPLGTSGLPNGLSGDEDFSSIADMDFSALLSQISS

[2] = target: T1, NFκB p65 (murine (cell line J774)), …; test: EMSA supershift; details: remark: other sources report otherwise

binding [1]: binds
binding [2]: binds
B1: NFκB p50, P25799 1-431 (protein, murine (cell line J774), UniProt P25799 1-431, looked up)
chain: MADDDPYGTGQMFHLNTALTHSIFNAELYSPEIPLSTDGPYLQILEQPKQRGFRFRYVCEGPSHGGLPGASSEKNKKSYPQVKICNYVGPAKVIVQLVTNGKNIHLHAHSLVGKHCEDGVCTVTAGPKDMVVGFANLGILHVTKKKVFETLEARMTEACIRGYNPGLLVHSDLAYLQAEGGGDRQLTDREKEIIRQAAVQQTKEMDLSVVRLMFTAFLPDSTGSFTRRLEPVVSDAIYDSKAPNASNLKIVRMDRTAGCVTGGEEIYLLCDKVQKDDIQIRFYEEEENGGVWEGFGDFSPTDVHRQFAIVFKTPKYKDVNITKPASVFVQLRRKSDLETSEPKPFLYYPEIKDKEEVQRKRQKLMPNFSDSFGGGSGAGAGGGGMFGSGGGGGSTGSPGPGYGYSNYGFPPYGGITFHPGVTKSNAGVTHG

Source: US7935675
